PubChem BioAssay AID1259405 – NCATS | 2018
The deposit covers about 50,000 reagents; below is a random part of them. About 4,000 of all reagents (8%) count as active. 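Mouse siRNA library applied to hamster cells; one well for each siRNA.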 Reagents against one gene are numbered here.

Purpose: 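Knock-downs that lift recombinant protein yield in hamster ovary cells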 (primary screen)
Cells: Chinese hamster CHO-K1 ovary cells with stable secreted eGFP expression
Reagent: single siRNA against mouse genes, 0.8 pmol siRNA per well (2 µl of 400 nM stock)
Duration: 3 days
Measured: 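Per-well intracellular GFP measured by laser scanning cytometry, plus viability from ATP luminescence, each relative to plate median of non-targeting control wells, in %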
Direction: GFP, % of control: higher = more GFP per well, higher productivity; viability (ATP), % of control: higher = more viable cells (more ATP)
Rule for the call: 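Called active when intracellular GFP, relative to negative control, is at or above 120%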

Rab11fip4 #1 showed GFP, % of control 52.1; viability (ATP), % of control 55.5; inactive.
Silencing of Rab11fip4 #2 came out at: GFP, % of control 110; viability (ATP), % of control 81.5; inactive.
Silencing of Rab11fip4 #3 resulted in: GFP, % of control 62.3; viability (ATP), % of control 69.8; inactive.
Against Cldn14 #1 the deposit lists GFP, % of control 72.6; viability (ATP), % of control 78.2; inactive.
Against Cldn14 #2, the values are GFP, % of control 53.7; viability (ATP), % of control 65.4; inactive.
After knock-down of Cldn14 #3 the results were GFP, % of control 103; viability (ATP), % of control 115; inactive.
For Tbc1d8 #1 the deposit lists GFP, % of control 120; viability (ATP), % of control 77.9; inactive.
Depletion of Tbc1d8 #2 resulted in: GFP, % of control 96.8; viability (ATP), % of control 84.9; inactive.
After knock-down of Tbc1d8 #3, the record shows GFP, % of control 73.9; viability (ATP), % of control 77.1; inactive.
With knock-down of Bcar3 #1, the record shows GFP, % of control 29.2; viability (ATP), % of control 36.2; inactive.
Bcar3 #2 scored GFP, % of control 98.8; viability (ATP), % of control 125; inactive.
After knock-down of Bcar3 #3 the results were GFP, % of control 65.3; viability (ATP), % of control 82.6; inactive.
After knock-down of Prop1 #1, the screen gave GFP, % of control 110; viability (ATP), % of control 83.7; inactive.
Depletion of Prop1 #2 gave: GFP, % of control 68.4; viability (ATP), % of control 78.6; inactive.
Silencing of Rab9 #1 gave: GFP, % of control 84.7; viability (ATP), % of control 114; inactive.
With knock-down of Rab9 #2, the screen gave GFP, % of control 164; viability (ATP), % of control 95.9; active.
Rab9 #3 scored GFP, % of control 68.5; viability (ATP), % of control 65.7; inactive.
For Rab9 #4, the values are GFP, % of control 102; viability (ATP), % of control 91.8; inactive.
Knock-down of Rab9 #5 resulted in: GFP, % of control 116; viability (ATP), % of control 84.4; inactive.
Knock-down of Rab9 #6 came out at: GFP, % of control 103; viability (ATP), % of control 74.3; inactive.
After knock-down of Ebi3 #1, the screen gave GFP, % of control 105; viability (ATP), % of control 79.8; inactive.
For Ebi3 #2, the values are GFP, % of control 80; viability (ATP), % of control 92.6; inactive.
After knock-down of Ebi3 #3, the record shows GFP, % of control 97.8; viability (ATP), % of control 79.9; inactive.
With knock-down of Mmp3 #1 the results were GFP, % of control 99.1; viability (ATP), % of control 73.9; inactive.
Mmp3 #2 showed GFP, % of control 69; viability (ATP), % of control 65.5; inactive.

Hits, of those listed so far:
Rab9 #2 | GFP, % of control = 164; viability (ATP), % of control = 95.9; call = active

The list goes on:
Htr5a #1 scored GFP, % of control 66.8; viability (ATP), % of control 70.5; inactive.
Htr5a #2 scored GFP, % of control 101; viability (ATP), % of control 101; inactive.
Against Htr5a #3 the deposit lists GFP, % of control 99.8; viability (ATP), % of control 52.4; inactive.
Xpo7 #1 scored GFP, % of control 78.9; viability (ATP), % of control 30.1; inactive.
For Xpo7 #2, the values are GFP, % of control 68.2; viability (ATP), % of control 84; inactive.
Silencing of Xpo7 #3 came out at: GFP, % of control 79.9; viability (ATP), % of control 73.6; inactive.
Depletion of Slc25a32 #1 gave: GFP, % of control 68.9; viability (ATP), % of control 81.8; inactive.
Slc25a32 #2 showed GFP, % of control 48.7; viability (ATP), % of control 40.4; inactive.
Slc25a32 #3 showed GFP, % of control 80.1; viability (ATP), % of control 73.1; inactive.
After knock-down of Six2 #1, the record shows GFP, % of control 85.7; viability (ATP), % of control 58.2; inactive.
For Six2 #2, the values are GFP, % of control 69.9; viability (ATP), % of control 73; inactive.
After knock-down of Six2 #3 the results were GFP, % of control 74; viability (ATP), % of control 71.6; inactive.
With knock-down of Zscan21 #1, the screen gave GFP, % of control 137; viability (ATP), % of control 105; active.
Zscan21 #2 gave GFP, % of control 92.2; viability (ATP), % of control 95.9; inactive.
Plcxd1 #1 scored GFP, % of control 95.4; viability (ATP), % of control 76.4; inactive.
With knock-down of Plcxd1 #2, the screen gave GFP, % of control 75.7; viability (ATP), % of control 72.9; inactive.
Plcxd1 #3 scored GFP, % of control 101; viability (ATP), % of control 96.9; inactive.
